Experimental data taken from US20180320217A1, “METHODS FOR SAMPLING AND MEASURING ORAL LAVAGE PROTEINS” (The Procter & Gamble Company, priority 2017, published 2018).
Where a name gives a salt, the structure may show the parent alone. At least one structure is not confirmed: it was looked up by name or label, or the drawing left a doubt.

Experiments:
diaphorase [1] = assay: Formation of formazan dyes: NADH and diaphorase, absence of malate (TABLE 7); type: biochemical, Clostridium kluyveri
diaphorase [2] = assay: Formation of formazan dyes: NADH, diaphorase and malate (TABLE 8); type: biochemical, Clostridium kluyveri
[3] = system: Malate dehydrogenase and diaphorase; assay: Formation of formazan dyes: Malate dehydrogenase and diaphorase, absence of malate (TABLE 9); type: biochemical, pig heart
[4] = system: Malate dehydrogenase and diaphorase; assay: Formation of formazan dyes: Malate dehydrogenase, diaphorase and malate (TABLE 10); type: biochemical, pig heart
oral lavage [5] = assay: Formation of formazan dyes: oral lavage and diaphorase, not malate (TABLE 11); type: biochemical, human
oral lavage [6] = assay: Formation of formazan dyes: oral lavage, malate and diaphorase (TABLE 12); type: biochemical, human
diaphorase [7] = assay: Formation of formazan dyes: only diaphorase, not malate (TABLE 13); type: biochemical, Clostridium kluyveri; conditions: mean of three experiments
diaphorase [8] = assay: Formation of formazan dyes: only diaphorase and malate (TABLE 14); type: biochemical, Clostridium kluyveri; conditions: mean of three experiments
[9] = Formation of formazan dyes: NADH and 1-methoxy PMS, absence of malate (TABLE 15); type: biochemical; conditions: for Absorbance, formation of formazan dyes (Means): NADH and 1-methoxy PMS, absence of malate, mean of three experiments
[10] = Formation of formazan dyes: NADH, malate and 1-methoxy PMS (TABLE 16); type: biochemical; conditions: mean of three experiments
oral lavage [11] = assay: Formation of formazan dyes: oral lavage and 1-Methoxy PMS, absence of malate (TABLE 19); type: biochemical, human; conditions: mean of three experiments
oral lavage [12] = assay: Formation of formazan dyes: oral lavage, malate and 1-Methoxy PMS (TABLE 20); type: biochemical, human; conditions: mean of three experiments
[13] = Formation of formazan dyes: control buffer and 1-Methoxy PMS, absence of malate (TABLE 21); type: biochemical; conditions: mean of three experiments
[14] = Formation of formazan dyes: control buffer, malate and 1-Methoxy PMS (TABLE 22); type: biochemical; conditions: mean of three experiments
diaphorase [15] = assay: Effect of concentrations of tetrazolium salts on formation of formazan dyes (FIGS. 4A-4G); type: biochemical; conditions: 15 mM NADH+H, 20 μg diaphorase, pH 7.5
Experimental: On the idea that higher concentrations of tetrazolium salts in the assay buffer would likely result in more formazan dyes in the reaction, various concentrations of tetrazolium salts were added to a reaction buffer and the formation of formazan dyes were measured at 0, 30 and 60 minutes. […] The reactions were performed at room temperature. Absorbance was taken at 0, 30 and 60 minutes.

Malate dehydrogenase [16] = target: T1, Malate dehydrogenase (Sus scrofa, UniProt P00346); assay: Formation of formazan dyes: Malate dehydrogenase and 1-Methoxy PMS, absence of malate (TABLE 17); type: biochemical, pig heart; design: L-malate dehydrogenase (pig heart); purchased Sigma-Aldrich 10127248001 / 10127914001; conditions: mean of three experiments
T1 sequence (P00346 25-338): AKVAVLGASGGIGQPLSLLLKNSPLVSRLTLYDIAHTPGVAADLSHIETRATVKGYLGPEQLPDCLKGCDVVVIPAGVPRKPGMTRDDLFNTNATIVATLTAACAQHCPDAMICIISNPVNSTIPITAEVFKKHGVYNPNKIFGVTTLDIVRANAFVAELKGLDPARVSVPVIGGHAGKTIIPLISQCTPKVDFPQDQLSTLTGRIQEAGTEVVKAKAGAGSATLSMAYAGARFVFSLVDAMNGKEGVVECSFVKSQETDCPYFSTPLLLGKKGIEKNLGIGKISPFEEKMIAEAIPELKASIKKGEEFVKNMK

Malate dehydrogenase [17] = target: T1, Malate dehydrogenase; assay: Formation of formazan dyes: Malate dehydrogenase, malate and 1-Methoxy PMS (TABLE 18); type: biochemical, pig heart; design: L-malate dehydrogenase (pig heart); purchased Sigma-Aldrich 10127248001 / 10127914001; conditions: mean of three experiments

In the case of `O=[N+]([O-])c1ccc(-n2nc(-c3ccccc3)n[n+]2-c2ccc(/N=N/c3ccc(S(=O)(=O)O)cc3)cc2S(=O)(=O)[O-])cc1` [WST-9, 2-(4-Nitrophenyl)-5-phenyl-3-[4-(4-sulfophenylazo)-2-sulfophenyl]-2H-tetrazolium, monosodium salt], the “time to be completely reduced to formazan dyes” value (diaphorase [1]; absence of malate (TABLE 7)) is reported as “about an hour”, the “Formation of formazan dyes, absorbance, Means 0 h” value (shortened to “Formation … Means 0 h”) (diaphorase [1]; absence of malate, 0 h) is reported as 1.48 and the “Formation of formazan dyes, absorbance, Means 1 h” value (“Formation … Means 1 h” below) (diaphorase [1]; absence of malate, 1 h) is reported as 2.08. The “Formation of formazan dyes, absorbance, Means 2 h” value (from here on “Formation … Means 2 h”) (diaphorase [1]; absence of malate, 2 h) was 2.08, the “Formation of formazan dyes, absorbance, Means 3 h” value (shortened to “Formation … Means 3 h”) (diaphorase [1]; absence of malate, 3 h) was 2.02 and the “Formation of formazan dyes, absorbance, Means 4 h” value (“Formation … Means 4 h” below) (diaphorase [1]; absence of malate, 4 h) was 1.97. For the same molecule, the “Formation of formazan dyes, absorbance, Means 6 h” value (from here on “Formation … Means 6 h”) (diaphorase [1]; absence of malate, 6 h) was 1.90, the “Formation of formazan dyes, absorbance, Means 8 h” value (shortened to “Formation … Means 8 h”) (diaphorase [1]; absence of malate, 8 h) was 1.90 and the “Formation of formazan dyes, absorbance, Means 10 h” value (“Formation … Means 10 h” below) (diaphorase [1]; absence of malate, 10 h) was 1.91. The “Formation of formazan dyes, absorbance, Means 12 h” value (shortened to “Formation … Means 12 h”) (diaphorase [1]; absence of malate, 12 h) was 1.84, the “time to be completely reduced to formazan dyes” value (diaphorase [2]; diaphorase and malate (TABLE 8)) was “about an hour” and the “Formation … Means 0 h” value (diaphorase [2]; diaphorase and malate, 0 h) was 0.85. For the same molecule, the “Formation … Means 1 h” value (diaphorase [2]; diaphorase and malate, 1 h) was 1.34, the “Formation … Means 2 h” value (diaphorase [2]; diaphorase and malate, 2 h) was 1.41 and the “Formation … Means 3 h” value (diaphorase [2]; diaphorase and malate, 3 h) was 1.38. For the same molecule, the “Formation … Means 4 h” value (diaphorase [2]; diaphorase and malate, 4 h) was 1.39, the “Formation … Means 6 h” value (diaphorase [2]; diaphorase and malate, 6 h) was 1.34 and the “Formation … Means 8 h” value (diaphorase [2]; diaphorase and malate, 8 h) was 1.30. For the same molecule, the “Formation … Means 10 h” value (diaphorase [2]; diaphorase and malate, 10 h) was 1.28, the “Formation … Means 12 h” value (diaphorase [2]; diaphorase and malate, 12 h) was 1.24 and the “Formation … Means 0 h” value ([3]; Malate dehydrogenase and diaphorase, absence of malate, 0 h) was 0.39. The “Formation … Means 1 h” value ([3]; Malate dehydrogenase and diaphorase, absence of malate, 1 h) was 0.60, the “Formation … Means 2 h” value ([3]; Malate dehydrogenase and diaphorase, absence of malate, 2 h) was 0.66 and the “Formation … Means 3 h” value ([3]; Malate dehydrogenase and diaphorase, absence of malate, 3 h) was 0.67. For the same molecule, the “Formation … Means 4 h” value ([3]; Malate dehydrogenase and diaphorase, absence of malate, 4 h) was 0.69, the “Formation … Means 6 h” value ([3]; Malate dehydrogenase and diaphorase, absence of malate, 6 h) was 0.72 and the “Formation … Means 8 h” value ([3]; Malate dehydrogenase and diaphorase, absence of malate, 8 h) was 0.77. The “Formation … Means 10 h” value ([3]; Malate dehydrogenase and diaphorase, absence of malate, 10 h) was 0.77, the “Formation … Means 12 h” value ([3]; Malate dehydrogenase and diaphorase, absence of malate, 12 h) was 0.81 and the “reduction of tetrazolium dye in the absence of substrate malate” value ([3]; malate dehydrogenase and diaphorase (TABLE 9)) was “partially reduced”. The “Formation … Means 0 h” value ([4]; Malate dehydrogenase, diaphorase and malate, 0 h) was 0.36, the “Formation … Means 1 h” value ([4]; Malate dehydrogenase, diaphorase and malate, 1 h) was 0.59 and the “Formation … Means 2 h” value ([4]; Malate dehydrogenase, diaphorase and malate, 2 h) was 0.71. For the same molecule, the “Formation … Means 3 h” value ([4]; Malate dehydrogenase, diaphorase and malate, 3 h) was 0.80, the “Formation … Means 4 h” value ([4]; Malate dehydrogenase, diaphorase and malate, 4 h) was 0.86 and the “Formation … Means 6 h” value ([4]; Malate dehydrogenase, diaphorase and malate, 6 h) was 0.97. The “Formation … Means 8 h” value ([4]; Malate dehydrogenase, diaphorase and malate, 8 h) was 1.04, the “Formation … Means 10 h” value ([4]; Malate dehydrogenase, diaphorase and malate, 10 h) was 1.10 and the “Formation … Means 12 h” value ([4]; Malate dehydrogenase, diaphorase and malate, 12 h) was 1.13. For the same molecule, the “conversion to reduced formazan dyes” value ([4]; malate dehydrogenase, diaphorase and malate (TABLE 10)) was “remained largely as an oxidized salt”, the “Formation … Means 0 h” value (oral lavage [5]; 0 h) was 0.45 and the “Formation … Means 1 h” value (oral lavage [5]; 1 h) was 0.63. For the same molecule, the “Formation … Means 2 h” value (oral lavage [5]; 2 h) was 0.64, the “Formation … Means 3 h” value (oral lavage [5]; 3 h) was 0.67 and the “Formation … Means 4 h” value (oral lavage [5]; 4 h) was 0.59. For the same molecule, the “Formation … Means 6 h” value (oral lavage [5]; 6 h) was 0.62, the “Formation … Means 8 h” value (oral lavage [5]; 8 h) was 0.71 and the “Formation … Means 10 h” value (oral lavage [5]; 10 h) was 0.64. For the same molecule, the “Formation … Means 12 h” value (oral lavage [5]; 12 h) was 0.67, the “Formation … Means 0 h” value (oral lavage [6]; 0 h) was 0.46 and the “Formation … Means 1 h” value (oral lavage [6]; 1 h) was 0.56. The “Formation … Means 2 h” value (oral lavage [6]; 2 h) was 0.57, the “Formation … Means 3 h” value (oral lavage [6]; 3 h) was 0.61 and the “Formation … Means 4 h” value (oral lavage [6]; 4 h) was 0.65. For the same molecule, the “Formation … Means 6 h” value (oral lavage [6]; 6 h) was 0.58, the “Formation … Means 8 h” value (oral lavage [6]; 8 h) was 0.63 and the “Formation … Means 10 h” value (oral lavage [6]; 10 h) was 0.64. For the same molecule, the “Formation … Means 12 h” value (oral lavage [6]; 12 h) was 0.78, the “Absorbance, formation of formazan dyes (Means)” value (“Absorbance, formation” for short) (diaphorase [7]; 0 h) was 0.19 and the “Absorbance, formation” value (diaphorase [7]; 1 h) was 0.28. For the same molecule, the “Absorbance, formation” value (diaphorase [7]; 2 h) was 0.29, the “Absorbance, formation” value (diaphorase [7]; 3 h) was 0.30 and the “Absorbance, formation” value (diaphorase [7]; 4 h) was 0.29. For the same molecule, the “Absorbance, formation” value (diaphorase [7]; 6 h) was 0.28, the “Absorbance, formation” value (diaphorase [7]; 8 h) was 0.27 and the “Absorbance, formation” value (diaphorase [7]; 10 h) was 0.31. For the same molecule, the “Absorbance, formation” value (diaphorase [7]; 12 h) was 0.27, the “Absorbance, formation” value (diaphorase [8]; 0 h) was 0.07 and the “Absorbance, formation” value (diaphorase [8]; 1 h) was 0.08. The “Absorbance, formation” value (diaphorase [8]; 2 h) was 0.09, the “Absorbance, formation” value (diaphorase [8]; 3 h) was 0.10 and the “Absorbance, formation” value (diaphorase [8]; 4 h) was 0.12. The “Absorbance, formation” value (diaphorase [8]; 6 h) was 0.14, the “Absorbance, formation” value (diaphorase [8]; 8 h) was 0.15 and the “Absorbance, formation” value (diaphorase [8]; 10 h) was 0.16. For the same molecule, the “Absorbance, formation” value (diaphorase [8]; 12 h) was 0.18, the “Absorbance, formation” value ([9]; 0 h) was 1.36 and the “Absorbance, formation” value ([9]; 1 h) was 1.47. The “Absorbance, formation” value ([9]; 2 h) was 1.44, the “Absorbance, formation” value ([9]; 3 h) was 1.33 and the “formation of formazan dyes / precipitates with 1-methoxy PMS and NADH” value ([9]; absence of malate (TABLE 15) or presence of malate (TABLE 16)) was “formed precipitated products”. For the same molecule, the “Absorbance, formation” value ([10]; 0 h) was 0.78, the “Absorbance, formation” value ([10]; 1 h) was 0.83 and the “Absorbance, formation” value ([10]; 2 h) was 0.80. For the same molecule, the “Absorbance, formation” value ([10]; 3 h) was 0.81, the “Absorbance, formation” value (oral lavage [11]; 0 h) was 1.02 and the “Absorbance, formation” value (oral lavage [11]; 1 h) was 1.26. The “Absorbance, formation” value (oral lavage [11]; 2 h) was 1.28, the “Absorbance, formation” value (oral lavage [11]; 3 h) was 1.57 and the “Absorbance, formation” value (oral lavage [12]; 0 h) was 1.01. For the same molecule, the “Absorbance, formation” value (oral lavage [12]; 1 h) was 1.34, the “Absorbance, formation” value (oral lavage [12]; 2 h) was 1.39 and the “Absorbance, formation” value (oral lavage [12]; 3 h) was 1.62. For the same molecule, the “Absorbance, formation” value ([13]; 0 h) was 0.31, the “Absorbance, formation” value ([13]; 1 h) was 0.38 and the “Absorbance, formation” value ([13]; 2 h) was 0.30. The “Absorbance, formation” value ([13]; 3 h) was 0.43, the “Means absorbance 0 h” value ([14]; 0 h) was 0.18 and the “Means absorbance 1 h” value ([14]; 1 h) was 0.20. For the same molecule, the “Means absorbance 2 h” value ([14]; 2 h) was 0.19, the “Means absorbance 3 h” value ([14]; 3 h) was 0.23 and the “concentration at which formazan salts started to form precipitates” value (diaphorase [15]) was 1000 µM. The “concentration of tetrazolium salt at which absorbance reached peaks” value (diaphorase [15]; FIGS. 4A to 4G) was > 2 mM, the “Absorbance, formation” value (Malate dehydrogenase [16]; 0 h) was 0.33 and the “Absorbance, formation” value (Malate dehydrogenase [16]; 1 h) was 0.45. The “Absorbance, formation” value (Malate dehydrogenase [16]; 2 h) was 0.45, the “Absorbance, formation” value (Malate dehydrogenase [16]; 3 h) was 0.54 and the “Absorbance, formation” value (Malate dehydrogenase [17]; 0 h) was 0.20. For the same molecule, the “Absorbance, formation” value (Malate dehydrogenase [17]; 1 h) was 0.21, the “Absorbance, formation” value (Malate dehydrogenase [17]; 2 h) was 0.22 and the “Absorbance, formation” value (Malate dehydrogenase [17]; 3 h) was 0.24.
